Reference: PMC5841341
No constants are given. Whether binding was seen depends on the method and setting. Binding seen in cells or lysates may run through a third protein. Some binding calls cover weakened binding; strength is not graded here.

Chains of the proteins cited; added tags and fusions are not shown.
UniProt Q07917: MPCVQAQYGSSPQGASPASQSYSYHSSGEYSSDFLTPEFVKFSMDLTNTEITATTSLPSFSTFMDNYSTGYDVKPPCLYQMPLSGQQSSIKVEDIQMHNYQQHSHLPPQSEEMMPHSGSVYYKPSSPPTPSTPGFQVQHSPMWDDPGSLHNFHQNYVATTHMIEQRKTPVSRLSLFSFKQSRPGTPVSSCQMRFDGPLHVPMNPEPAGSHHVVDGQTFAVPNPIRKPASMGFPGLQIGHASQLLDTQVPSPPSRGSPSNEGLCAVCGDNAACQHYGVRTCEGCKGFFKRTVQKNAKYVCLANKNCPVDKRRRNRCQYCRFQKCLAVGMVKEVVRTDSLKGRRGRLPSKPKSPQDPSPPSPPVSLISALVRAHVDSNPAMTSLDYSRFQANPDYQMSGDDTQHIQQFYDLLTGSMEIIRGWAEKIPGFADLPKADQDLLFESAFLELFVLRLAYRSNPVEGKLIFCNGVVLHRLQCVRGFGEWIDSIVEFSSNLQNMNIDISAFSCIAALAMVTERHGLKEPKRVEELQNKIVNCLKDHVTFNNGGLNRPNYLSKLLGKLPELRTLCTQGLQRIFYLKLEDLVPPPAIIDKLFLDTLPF
UniProt P10361: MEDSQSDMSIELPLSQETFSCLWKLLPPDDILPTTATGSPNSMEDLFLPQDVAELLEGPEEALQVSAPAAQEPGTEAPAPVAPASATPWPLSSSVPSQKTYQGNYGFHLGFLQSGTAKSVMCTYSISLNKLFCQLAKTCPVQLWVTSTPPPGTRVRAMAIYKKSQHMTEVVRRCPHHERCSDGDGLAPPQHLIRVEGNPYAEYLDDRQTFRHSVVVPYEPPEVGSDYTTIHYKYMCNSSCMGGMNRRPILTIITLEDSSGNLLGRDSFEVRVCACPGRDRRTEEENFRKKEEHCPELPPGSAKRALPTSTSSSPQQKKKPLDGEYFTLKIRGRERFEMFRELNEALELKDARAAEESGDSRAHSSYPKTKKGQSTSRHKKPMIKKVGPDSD

Molecular target: Nuclear receptor subfamily 4, group A, member 2 (NR4A2) (UniProt Q07917)
Test: co-IP; H9c2 cells transfected with NR4A2 overexpression plasmid or negative control plasmid, then ischemia treatment (serum deprivation); lysate in IP lysis buffer incubated with protein A/G agarose beads and GFP antibody at 4 °C overnight; GFP and p53 detected by western blot

p53 (from UniProt P10361 1-391)
binding: binds
